{"source": "patent US20230365643A1", "about": "“PEPTIDE, AND COSMETIC COMPOSITION AND PHARMACEUTICAL COMPOSITION COMPRISING SAME” (SEOUL NATIONAL UNIVERSITY HOSPITAL, priority 2020, published 2023)", "system": "C57BL/6 mice", "test": "Hair growth promoting efficacy in mice", "assay_type": "in vivo, mouse", "conditions": "lower back skin, once a day, after about 4 weeks; P5N 0.1 mM, P5 0.05 and 0.1 mM, MNX 3% (FIG. 11)", "from_the_text": "It is known that all the hairs of a mouse go through a process in which the hair enters the resting phase at 7 to 8 weeks of age and is converted back to the growing phase. Accordingly, the effect of the peptide of the present invention on the growth phase inducing process was confirmed using C57BL/6 mice. Specifically, 3% of minoxidil (MNX), which is commonly used as a treatment for hair loss and hair growth, on the skin of the lower back of the mouse, the existing adiponectin-derived peptide […] NO: 2), […] and 0.1 mM), and the present peptide […] NO: 2)-NH2) were applied at 0.1 mM concentration, respectively, once a day. Thereafter, hair growth was investigated. As a result, in the group treated with the peptide of the present invention as in the positive controls, it was confirmed […], after about 4 weeks, a proportion of the region where hair was grown in the growth phase among the region where hair was first removed is increased (FIG. 11).", "note": "At least one compound was matched to its structure with a doubt left."}
{"smiles": "Nc1cc(N2CCCCC2)nc(N)[n+]1[O-]", "note": "[minoxidil]", "values": [{"measurement": "proportion of the region where hair was grown in the growth phase", "result": "increased"}]}
